Structures were worked out from names or drawings and are uncertain.
Tests used:
[1] = target: α isoform of human Class I PI3 kinases (Homo sapiens (Human), UniProt P42336); assay: PI3-Kinase Promega ADP-Glo Max assay, α isoform; assay type: biochemical; settings: read-out: PI3K α IC50
[2] = target: β isoform of human Class I PI3 kinases (Homo sapiens (Human), UniProt P42338); assay: PI3-Kinase Promega ADP-Glo Max assay, β isoform; assay type: biochemical; settings: read-out: PI3K β IC50
[3] = target: δ isoform of human Class I PI3 kinases (Homo sapiens (Human), UniProt O00329); assay: PI3-Kinase Promega ADP-Glo Max assay, δ isoform; assay type: biochemical; settings: read-out: PI3K δ IC50
[4] = target: γ isoform of human Class I PI3 kinases (Homo sapiens (Human), UniProt P48736); assay: PI3-Kinase Promega ADP-Glo Max assay, γ isoform; assay type: biochemical
[5] = target: PI3K-δ (Homo sapiens (Human), UniProt O00329); assay: PI3K-δ selective cellular assay: phospho-AKT in anti-human IgM stimulated RAJI cells; settings: read-out: RAJI p110 δ assay IC50
[6] = target: PI3K-γ (Mus musculus (Mouse), UniProt Q9JHG7); assay: PI3K-γ selective cellular assay: phospho-AKT in C5a stimulated RAW264.7 macrophages; assay type: cell-based

Amino acid sequences for entries named in this document (tags omitted). A change or cut given only in a name is not applied to a line headed by its entry.
UniProt P42336, whole entry: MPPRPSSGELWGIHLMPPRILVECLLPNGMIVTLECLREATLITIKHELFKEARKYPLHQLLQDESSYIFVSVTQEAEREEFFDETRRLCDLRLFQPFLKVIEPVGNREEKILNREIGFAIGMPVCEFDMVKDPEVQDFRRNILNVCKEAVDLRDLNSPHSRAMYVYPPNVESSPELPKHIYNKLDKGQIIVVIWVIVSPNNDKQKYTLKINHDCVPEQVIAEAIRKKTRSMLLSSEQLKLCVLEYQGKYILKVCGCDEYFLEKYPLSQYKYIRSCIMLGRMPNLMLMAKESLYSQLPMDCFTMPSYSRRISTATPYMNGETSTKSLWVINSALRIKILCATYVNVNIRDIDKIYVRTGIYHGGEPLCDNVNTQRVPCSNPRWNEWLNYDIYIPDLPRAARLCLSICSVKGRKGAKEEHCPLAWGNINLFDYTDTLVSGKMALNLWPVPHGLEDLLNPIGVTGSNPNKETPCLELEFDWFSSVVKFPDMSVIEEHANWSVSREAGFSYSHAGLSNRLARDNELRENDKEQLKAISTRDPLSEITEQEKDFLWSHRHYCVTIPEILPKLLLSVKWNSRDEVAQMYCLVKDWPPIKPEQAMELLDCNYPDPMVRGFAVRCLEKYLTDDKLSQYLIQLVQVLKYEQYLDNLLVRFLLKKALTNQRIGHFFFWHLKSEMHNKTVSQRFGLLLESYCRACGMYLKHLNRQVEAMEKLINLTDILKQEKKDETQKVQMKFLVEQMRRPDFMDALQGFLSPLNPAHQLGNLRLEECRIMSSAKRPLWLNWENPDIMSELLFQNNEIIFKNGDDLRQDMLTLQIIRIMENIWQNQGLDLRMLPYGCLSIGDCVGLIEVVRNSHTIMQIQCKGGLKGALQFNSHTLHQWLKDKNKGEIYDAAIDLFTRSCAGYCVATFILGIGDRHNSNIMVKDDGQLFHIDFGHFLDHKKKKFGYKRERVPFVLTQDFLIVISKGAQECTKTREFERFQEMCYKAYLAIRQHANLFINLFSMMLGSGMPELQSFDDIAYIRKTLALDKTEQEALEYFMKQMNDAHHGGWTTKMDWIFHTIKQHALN
UniProt P42338, whole entry: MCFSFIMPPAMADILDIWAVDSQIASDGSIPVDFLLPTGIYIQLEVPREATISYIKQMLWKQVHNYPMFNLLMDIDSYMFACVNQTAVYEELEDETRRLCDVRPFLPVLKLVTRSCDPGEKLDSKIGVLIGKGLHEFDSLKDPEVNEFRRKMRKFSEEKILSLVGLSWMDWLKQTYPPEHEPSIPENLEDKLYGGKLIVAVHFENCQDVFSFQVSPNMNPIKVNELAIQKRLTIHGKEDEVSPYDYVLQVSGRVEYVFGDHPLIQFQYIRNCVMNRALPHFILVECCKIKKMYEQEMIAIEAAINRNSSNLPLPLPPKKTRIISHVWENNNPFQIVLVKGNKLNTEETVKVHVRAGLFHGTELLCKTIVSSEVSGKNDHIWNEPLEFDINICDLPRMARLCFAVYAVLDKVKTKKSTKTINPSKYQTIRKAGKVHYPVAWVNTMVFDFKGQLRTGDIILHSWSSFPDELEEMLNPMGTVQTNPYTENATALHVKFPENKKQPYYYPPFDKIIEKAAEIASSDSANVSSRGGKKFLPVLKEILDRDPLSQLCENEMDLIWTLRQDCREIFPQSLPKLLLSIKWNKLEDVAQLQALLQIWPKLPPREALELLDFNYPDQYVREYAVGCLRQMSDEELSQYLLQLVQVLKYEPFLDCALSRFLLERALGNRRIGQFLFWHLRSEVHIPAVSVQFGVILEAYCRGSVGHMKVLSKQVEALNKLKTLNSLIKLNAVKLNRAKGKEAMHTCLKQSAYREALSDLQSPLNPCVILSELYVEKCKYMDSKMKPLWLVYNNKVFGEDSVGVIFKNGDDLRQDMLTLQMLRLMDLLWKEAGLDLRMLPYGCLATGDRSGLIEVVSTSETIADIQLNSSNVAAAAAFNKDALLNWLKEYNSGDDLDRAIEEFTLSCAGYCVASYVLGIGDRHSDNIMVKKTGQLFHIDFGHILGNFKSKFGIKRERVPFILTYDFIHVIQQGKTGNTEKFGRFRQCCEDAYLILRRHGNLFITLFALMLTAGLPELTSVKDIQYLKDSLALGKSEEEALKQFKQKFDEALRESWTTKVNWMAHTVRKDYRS
UniProt O00329, whole entry: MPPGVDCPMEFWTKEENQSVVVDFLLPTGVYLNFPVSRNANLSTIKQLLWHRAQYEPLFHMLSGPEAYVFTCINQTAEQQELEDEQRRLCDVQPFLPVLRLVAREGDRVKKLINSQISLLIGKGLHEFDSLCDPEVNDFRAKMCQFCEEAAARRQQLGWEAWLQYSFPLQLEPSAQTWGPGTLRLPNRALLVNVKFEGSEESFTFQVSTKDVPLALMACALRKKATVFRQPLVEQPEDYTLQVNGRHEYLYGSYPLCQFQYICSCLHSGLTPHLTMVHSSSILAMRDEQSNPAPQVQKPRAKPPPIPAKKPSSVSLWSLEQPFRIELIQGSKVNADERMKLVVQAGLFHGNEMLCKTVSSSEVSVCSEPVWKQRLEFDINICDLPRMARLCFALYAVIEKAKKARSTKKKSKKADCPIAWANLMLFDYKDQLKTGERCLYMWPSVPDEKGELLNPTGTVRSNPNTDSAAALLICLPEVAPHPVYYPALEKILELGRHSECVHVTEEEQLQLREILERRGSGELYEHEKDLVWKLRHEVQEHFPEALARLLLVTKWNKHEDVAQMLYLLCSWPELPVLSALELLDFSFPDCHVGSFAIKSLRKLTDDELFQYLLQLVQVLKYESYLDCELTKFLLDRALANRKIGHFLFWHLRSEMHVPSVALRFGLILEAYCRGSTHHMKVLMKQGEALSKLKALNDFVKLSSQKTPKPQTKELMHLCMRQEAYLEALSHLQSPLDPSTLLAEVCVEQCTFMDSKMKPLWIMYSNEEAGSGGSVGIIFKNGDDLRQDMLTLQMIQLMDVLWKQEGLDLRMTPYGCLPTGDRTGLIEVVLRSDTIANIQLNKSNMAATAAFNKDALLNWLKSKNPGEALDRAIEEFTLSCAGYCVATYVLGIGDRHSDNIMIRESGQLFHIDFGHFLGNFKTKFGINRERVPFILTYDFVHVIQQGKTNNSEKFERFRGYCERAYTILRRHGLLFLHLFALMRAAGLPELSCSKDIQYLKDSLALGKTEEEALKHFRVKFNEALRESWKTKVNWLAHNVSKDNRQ
UniProt P48736, whole entry: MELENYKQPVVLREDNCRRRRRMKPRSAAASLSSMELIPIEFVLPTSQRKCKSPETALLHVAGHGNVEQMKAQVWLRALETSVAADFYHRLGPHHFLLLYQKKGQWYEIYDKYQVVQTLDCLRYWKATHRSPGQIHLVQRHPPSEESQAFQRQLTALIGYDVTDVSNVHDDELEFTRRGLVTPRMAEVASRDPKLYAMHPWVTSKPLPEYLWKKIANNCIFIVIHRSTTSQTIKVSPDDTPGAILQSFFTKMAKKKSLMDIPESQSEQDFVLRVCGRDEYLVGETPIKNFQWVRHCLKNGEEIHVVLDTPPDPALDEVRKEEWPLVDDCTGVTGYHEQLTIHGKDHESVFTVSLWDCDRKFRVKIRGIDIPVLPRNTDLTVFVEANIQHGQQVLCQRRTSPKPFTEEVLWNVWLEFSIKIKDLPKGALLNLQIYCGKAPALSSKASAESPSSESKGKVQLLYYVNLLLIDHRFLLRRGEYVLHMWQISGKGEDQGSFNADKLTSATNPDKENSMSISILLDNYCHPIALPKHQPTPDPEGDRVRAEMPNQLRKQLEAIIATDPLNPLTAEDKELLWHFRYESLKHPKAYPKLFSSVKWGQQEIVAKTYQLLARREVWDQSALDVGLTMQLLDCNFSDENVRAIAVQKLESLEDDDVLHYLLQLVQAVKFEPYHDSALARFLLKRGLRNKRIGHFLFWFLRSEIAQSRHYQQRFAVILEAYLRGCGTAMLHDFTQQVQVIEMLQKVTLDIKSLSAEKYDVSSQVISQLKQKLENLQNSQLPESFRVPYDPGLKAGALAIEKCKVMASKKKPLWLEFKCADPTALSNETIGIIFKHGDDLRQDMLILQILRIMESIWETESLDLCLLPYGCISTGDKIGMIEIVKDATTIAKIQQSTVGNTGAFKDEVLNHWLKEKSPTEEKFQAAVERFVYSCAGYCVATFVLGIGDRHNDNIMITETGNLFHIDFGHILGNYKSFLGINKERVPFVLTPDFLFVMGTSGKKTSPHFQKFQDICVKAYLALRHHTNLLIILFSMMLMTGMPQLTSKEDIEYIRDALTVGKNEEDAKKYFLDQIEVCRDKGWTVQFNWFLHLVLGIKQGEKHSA
UniProt Q9JHG7, whole entry: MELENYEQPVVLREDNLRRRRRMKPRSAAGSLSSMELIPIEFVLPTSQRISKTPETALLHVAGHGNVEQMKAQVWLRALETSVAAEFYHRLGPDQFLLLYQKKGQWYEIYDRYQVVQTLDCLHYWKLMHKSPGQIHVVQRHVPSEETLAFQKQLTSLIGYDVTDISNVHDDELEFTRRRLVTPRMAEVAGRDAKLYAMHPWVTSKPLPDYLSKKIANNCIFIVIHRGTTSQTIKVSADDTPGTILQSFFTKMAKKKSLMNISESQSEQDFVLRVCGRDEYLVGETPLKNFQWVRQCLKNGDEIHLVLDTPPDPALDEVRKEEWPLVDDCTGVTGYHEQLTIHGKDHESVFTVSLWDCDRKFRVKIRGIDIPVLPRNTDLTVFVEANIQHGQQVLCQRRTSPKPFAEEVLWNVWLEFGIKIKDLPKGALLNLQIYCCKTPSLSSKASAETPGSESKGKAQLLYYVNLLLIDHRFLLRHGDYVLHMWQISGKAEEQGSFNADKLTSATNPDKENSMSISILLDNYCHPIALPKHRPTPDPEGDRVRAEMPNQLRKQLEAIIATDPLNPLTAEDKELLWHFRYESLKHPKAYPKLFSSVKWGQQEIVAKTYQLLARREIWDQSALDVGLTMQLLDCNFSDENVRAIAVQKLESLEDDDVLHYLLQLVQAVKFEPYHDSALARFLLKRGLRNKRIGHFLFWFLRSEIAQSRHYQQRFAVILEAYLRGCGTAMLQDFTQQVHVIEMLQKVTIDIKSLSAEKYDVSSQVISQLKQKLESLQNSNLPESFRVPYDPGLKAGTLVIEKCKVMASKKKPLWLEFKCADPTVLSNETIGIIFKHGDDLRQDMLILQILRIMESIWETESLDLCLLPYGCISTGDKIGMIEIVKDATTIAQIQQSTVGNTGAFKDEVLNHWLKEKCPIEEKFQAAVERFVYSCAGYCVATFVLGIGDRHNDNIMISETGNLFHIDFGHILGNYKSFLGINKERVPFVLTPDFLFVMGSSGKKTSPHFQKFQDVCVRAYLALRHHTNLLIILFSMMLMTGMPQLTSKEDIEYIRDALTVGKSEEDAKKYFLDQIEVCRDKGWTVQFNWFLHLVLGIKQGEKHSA
UniProt P27986, whole entry partner: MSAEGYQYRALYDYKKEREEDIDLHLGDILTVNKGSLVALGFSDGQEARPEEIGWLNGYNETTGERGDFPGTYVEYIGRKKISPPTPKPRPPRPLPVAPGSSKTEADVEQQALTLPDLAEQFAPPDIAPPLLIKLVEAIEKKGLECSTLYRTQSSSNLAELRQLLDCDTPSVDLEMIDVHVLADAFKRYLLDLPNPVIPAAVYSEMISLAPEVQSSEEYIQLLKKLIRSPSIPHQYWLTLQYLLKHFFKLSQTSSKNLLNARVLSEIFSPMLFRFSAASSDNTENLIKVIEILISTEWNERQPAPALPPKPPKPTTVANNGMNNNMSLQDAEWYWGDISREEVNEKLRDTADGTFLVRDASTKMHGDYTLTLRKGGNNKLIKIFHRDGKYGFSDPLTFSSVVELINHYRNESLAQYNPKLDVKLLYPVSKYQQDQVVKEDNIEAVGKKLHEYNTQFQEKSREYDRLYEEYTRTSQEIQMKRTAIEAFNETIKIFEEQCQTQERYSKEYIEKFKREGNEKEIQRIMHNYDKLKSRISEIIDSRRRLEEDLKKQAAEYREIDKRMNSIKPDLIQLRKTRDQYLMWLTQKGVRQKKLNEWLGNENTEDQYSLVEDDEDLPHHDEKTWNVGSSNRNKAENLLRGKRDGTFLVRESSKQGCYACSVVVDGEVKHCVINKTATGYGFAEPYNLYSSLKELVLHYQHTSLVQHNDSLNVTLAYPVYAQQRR

- IC50 [1]: 5000 to 10000 nM
- IC50 [2]: 5000 to 10000 nM
- IC50 [3]: 5000 to 10000 nM
- PI3K δ/PI3K γ IC50 (selectivity) ([4]; ratio of PI3K δ IC50 to PI3K γ IC50): Y (Y = 50 to <850)
- IC50 ([4]; read-out: PI3K γ IC50): 1 to 100 nM
- IC50 [5]: 500 to 1000 nM
- RAJI δ/Raw264.7 γ IC50 (selectivity) ([6]; ratio of RAJI p110 δ assay IC50 to Raw264.7 p110 γ assay IC50): Y (Y = 50 to <850)
- IC50 ([6]; read-out: Raw264.7 p110 γ assay IC50, phospho-AKT, Raw264.7 cells): 1 to 50 nM
Structure (SMILES): Cc1nc(C#Cc2cccc3nc([C@H](C)NC(=O)c4c(N)nn5cccnc45)n(-c4ccccc4)c(=O)c23)cs1

Reference: US10329299B2, “Heterocyclic compounds and uses thereof” (Infinity Pharmaceuticals, Inc., priority 2013, dated 2019)
